The other results are listed elsewhere or left out. Residues, ends and D or L forms follow the SMILES beside them. *: point of attachment. Cbz = O=C(OCc1ccccc1)*
Legend:
Experiment in all cases: log2 fold change, soluble protein after heating vs DMSO (PISA); higher = thermal stabilisation; K562 cells, 10 uM, 30 min; active = over 0.2 and 3.5 SD of the protein, either way, in both replicates (recomputed)
[1] = compound: C1COCCN1CCN2C3=CC=CC=C3N=C2NC(=O)C4=CC(=CC=C4)[N+](=O)[O-] [IRAK-1-4 Inhibitor I]
Procedure, shortened: (§1)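 K562 cells at 2×10^6 cells/mL were treated for 30 min with 10 μM compound, and aliquots were heated for 3 min over 48°C-58°C before pooling. Extraction used PBS with 0.5% NP-40 at 4°C, and soluble protein was the supernatant after 21,000xg for 90 min, measured by TMTpro 16plex LC-MS/MS with channel sums equalised. Thermal stability values, relative to control samples and from duplicates, are log2 fold changes.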

By UniProt entry, the sequences of proteins in these tests, tags left out. Where a name states a change or a piece, a line headed by the entry shows the natural chain unless it says otherwise.
UniProt Q96RS6: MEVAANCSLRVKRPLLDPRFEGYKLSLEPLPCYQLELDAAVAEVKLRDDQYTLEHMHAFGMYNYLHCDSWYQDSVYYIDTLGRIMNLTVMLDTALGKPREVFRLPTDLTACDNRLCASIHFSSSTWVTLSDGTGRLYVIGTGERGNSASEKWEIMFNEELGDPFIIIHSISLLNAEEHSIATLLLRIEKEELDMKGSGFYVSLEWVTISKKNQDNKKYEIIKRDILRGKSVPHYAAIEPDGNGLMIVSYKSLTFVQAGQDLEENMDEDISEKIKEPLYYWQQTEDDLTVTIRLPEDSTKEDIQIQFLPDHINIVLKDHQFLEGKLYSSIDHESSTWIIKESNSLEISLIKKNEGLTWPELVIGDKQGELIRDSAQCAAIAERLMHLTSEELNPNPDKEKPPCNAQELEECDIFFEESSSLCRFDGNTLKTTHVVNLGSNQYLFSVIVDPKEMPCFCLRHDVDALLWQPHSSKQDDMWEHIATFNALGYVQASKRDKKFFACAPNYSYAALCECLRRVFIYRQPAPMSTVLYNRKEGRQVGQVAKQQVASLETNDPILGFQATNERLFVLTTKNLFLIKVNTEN
UniProt O95989: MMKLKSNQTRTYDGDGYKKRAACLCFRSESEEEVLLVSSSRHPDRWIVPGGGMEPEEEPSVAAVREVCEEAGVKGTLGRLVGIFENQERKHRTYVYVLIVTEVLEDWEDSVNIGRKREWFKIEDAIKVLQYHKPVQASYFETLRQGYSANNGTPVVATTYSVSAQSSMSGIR
UniProt O43929: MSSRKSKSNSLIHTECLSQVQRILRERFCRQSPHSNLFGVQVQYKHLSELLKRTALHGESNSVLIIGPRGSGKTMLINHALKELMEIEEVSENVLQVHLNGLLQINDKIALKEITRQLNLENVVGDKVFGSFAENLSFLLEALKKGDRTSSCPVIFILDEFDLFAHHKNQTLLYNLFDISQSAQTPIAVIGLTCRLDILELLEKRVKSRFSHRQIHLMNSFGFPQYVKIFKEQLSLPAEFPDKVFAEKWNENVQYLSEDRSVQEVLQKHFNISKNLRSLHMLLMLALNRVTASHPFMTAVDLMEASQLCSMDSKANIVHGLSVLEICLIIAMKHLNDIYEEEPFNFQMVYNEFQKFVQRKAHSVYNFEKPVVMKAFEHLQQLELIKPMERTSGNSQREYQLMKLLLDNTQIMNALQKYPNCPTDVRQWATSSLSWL
UniProt Q8WUM0: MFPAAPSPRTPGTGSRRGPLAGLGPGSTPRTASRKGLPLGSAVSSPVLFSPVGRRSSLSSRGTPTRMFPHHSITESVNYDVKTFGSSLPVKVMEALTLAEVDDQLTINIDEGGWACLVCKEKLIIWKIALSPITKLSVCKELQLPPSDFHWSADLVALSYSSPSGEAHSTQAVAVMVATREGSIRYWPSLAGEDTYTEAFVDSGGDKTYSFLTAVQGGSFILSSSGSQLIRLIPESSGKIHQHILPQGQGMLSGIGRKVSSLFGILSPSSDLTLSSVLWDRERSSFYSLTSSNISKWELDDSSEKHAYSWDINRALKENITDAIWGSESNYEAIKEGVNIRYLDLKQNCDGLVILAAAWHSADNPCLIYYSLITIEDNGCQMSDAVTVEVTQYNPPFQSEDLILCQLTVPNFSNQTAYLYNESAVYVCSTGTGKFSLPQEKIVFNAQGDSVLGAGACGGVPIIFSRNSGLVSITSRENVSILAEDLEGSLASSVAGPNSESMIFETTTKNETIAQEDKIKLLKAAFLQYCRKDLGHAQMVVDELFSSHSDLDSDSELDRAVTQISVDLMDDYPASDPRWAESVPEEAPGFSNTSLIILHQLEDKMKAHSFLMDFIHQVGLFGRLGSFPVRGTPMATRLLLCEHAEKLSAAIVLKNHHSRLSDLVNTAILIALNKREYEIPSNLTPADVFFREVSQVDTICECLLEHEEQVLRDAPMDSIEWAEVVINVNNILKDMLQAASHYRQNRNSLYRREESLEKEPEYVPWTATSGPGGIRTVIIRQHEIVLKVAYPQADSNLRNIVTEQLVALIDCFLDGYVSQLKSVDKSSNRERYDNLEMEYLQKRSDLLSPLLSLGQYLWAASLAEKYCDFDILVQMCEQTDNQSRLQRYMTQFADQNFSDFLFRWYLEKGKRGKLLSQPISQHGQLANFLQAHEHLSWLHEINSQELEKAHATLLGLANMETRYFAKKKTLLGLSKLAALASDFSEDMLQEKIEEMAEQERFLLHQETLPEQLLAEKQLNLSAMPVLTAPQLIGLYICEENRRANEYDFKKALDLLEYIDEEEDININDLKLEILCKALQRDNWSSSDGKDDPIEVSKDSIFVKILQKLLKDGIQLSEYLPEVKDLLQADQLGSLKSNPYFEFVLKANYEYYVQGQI
UniProt P80303: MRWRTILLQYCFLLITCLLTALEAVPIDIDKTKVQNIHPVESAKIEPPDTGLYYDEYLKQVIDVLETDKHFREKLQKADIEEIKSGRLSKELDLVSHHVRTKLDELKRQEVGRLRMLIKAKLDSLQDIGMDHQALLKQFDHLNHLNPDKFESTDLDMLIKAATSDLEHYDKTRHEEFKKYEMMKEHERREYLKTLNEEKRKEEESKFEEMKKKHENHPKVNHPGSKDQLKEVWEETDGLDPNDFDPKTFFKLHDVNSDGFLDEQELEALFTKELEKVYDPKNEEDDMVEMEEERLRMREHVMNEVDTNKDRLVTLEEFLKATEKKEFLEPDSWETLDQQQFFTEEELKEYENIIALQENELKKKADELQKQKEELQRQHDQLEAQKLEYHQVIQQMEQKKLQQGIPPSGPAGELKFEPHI
UniProt Q99571: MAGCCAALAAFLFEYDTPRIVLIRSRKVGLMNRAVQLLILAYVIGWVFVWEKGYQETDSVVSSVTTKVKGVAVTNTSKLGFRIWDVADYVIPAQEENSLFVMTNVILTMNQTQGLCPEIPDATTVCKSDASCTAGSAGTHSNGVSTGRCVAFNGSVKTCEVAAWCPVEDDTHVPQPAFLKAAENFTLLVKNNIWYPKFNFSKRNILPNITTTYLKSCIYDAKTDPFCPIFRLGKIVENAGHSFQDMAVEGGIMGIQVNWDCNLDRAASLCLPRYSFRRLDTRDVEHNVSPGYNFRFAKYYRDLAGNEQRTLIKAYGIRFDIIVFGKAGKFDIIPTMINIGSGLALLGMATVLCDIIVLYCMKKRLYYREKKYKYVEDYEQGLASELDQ
UniProt Q9NX40: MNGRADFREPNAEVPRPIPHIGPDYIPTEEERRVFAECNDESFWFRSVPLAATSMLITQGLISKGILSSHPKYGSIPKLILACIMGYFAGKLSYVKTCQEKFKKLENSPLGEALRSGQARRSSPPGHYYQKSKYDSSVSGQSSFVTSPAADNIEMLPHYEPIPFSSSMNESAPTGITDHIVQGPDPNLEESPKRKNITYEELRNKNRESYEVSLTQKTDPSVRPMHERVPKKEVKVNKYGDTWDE
UniProt P13674: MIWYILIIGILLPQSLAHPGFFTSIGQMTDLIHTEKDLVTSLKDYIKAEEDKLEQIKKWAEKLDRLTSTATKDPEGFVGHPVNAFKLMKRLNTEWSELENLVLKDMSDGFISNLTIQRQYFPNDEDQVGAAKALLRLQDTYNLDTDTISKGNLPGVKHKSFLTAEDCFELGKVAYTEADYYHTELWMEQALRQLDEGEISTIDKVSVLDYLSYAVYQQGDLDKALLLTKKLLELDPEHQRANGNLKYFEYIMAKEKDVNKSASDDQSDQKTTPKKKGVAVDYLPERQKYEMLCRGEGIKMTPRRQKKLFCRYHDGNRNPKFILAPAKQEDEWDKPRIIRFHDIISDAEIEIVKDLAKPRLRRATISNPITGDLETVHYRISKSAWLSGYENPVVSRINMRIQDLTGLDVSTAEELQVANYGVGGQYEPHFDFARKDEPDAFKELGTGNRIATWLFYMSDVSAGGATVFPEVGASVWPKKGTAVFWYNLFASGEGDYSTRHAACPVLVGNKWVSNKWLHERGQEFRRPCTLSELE
UniProt Q9Y5A7: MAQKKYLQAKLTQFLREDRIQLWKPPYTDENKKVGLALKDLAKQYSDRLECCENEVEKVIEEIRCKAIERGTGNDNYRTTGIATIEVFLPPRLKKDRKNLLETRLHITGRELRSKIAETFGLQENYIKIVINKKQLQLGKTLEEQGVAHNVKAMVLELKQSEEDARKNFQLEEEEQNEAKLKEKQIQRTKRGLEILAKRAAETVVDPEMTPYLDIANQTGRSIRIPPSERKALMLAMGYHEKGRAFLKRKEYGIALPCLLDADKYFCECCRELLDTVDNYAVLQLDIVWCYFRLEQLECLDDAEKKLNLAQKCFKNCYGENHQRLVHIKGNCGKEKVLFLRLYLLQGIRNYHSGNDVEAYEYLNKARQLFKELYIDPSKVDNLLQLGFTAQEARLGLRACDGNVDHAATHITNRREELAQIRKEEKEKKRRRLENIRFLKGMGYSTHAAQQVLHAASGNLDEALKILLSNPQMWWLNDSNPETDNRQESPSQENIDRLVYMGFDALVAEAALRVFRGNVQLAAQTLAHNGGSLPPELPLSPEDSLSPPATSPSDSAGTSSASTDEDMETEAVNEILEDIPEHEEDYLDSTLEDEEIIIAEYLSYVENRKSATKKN
UniProt Q96HP4: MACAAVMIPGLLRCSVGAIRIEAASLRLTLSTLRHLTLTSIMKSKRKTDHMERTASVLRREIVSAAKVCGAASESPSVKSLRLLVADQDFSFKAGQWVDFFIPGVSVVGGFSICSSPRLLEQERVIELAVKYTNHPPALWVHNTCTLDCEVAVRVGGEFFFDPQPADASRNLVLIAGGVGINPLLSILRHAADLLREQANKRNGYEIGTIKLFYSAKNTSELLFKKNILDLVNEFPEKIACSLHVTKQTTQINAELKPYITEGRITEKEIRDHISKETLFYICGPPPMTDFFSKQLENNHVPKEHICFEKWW
UniProt Q9H6K4: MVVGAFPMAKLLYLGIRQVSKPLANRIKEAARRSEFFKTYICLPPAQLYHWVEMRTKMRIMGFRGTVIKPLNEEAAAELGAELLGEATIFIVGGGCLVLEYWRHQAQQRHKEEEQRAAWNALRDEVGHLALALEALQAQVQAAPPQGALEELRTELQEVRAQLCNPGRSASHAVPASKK
UniProt Q8TEA1: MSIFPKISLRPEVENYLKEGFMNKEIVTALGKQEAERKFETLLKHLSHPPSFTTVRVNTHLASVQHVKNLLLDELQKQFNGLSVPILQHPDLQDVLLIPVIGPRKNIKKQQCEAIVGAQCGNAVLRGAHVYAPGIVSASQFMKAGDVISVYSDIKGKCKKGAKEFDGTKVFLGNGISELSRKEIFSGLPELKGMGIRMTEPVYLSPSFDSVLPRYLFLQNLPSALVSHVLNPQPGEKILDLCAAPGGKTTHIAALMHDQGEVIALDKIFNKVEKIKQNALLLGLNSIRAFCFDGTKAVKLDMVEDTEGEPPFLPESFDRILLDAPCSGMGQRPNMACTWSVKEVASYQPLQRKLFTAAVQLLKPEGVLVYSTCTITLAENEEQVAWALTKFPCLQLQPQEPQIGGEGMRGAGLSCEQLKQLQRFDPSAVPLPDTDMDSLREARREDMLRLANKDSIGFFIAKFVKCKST
UniProt Q96MG7: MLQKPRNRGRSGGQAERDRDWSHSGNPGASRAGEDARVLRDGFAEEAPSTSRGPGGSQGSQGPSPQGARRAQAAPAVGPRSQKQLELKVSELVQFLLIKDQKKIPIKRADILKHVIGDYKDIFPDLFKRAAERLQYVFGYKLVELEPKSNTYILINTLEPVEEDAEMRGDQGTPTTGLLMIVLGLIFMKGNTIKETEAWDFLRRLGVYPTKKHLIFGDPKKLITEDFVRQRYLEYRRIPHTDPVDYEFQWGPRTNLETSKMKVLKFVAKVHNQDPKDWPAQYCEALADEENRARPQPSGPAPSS
UniProt Q9Y5Y2: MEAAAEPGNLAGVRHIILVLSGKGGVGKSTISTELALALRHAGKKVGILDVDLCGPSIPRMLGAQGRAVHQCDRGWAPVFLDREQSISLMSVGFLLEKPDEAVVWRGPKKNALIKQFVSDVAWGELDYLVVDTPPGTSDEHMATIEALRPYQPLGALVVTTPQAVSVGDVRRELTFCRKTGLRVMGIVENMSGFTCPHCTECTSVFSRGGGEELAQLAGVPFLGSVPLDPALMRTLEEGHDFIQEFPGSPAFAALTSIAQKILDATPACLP
UniProt Q9BXS6: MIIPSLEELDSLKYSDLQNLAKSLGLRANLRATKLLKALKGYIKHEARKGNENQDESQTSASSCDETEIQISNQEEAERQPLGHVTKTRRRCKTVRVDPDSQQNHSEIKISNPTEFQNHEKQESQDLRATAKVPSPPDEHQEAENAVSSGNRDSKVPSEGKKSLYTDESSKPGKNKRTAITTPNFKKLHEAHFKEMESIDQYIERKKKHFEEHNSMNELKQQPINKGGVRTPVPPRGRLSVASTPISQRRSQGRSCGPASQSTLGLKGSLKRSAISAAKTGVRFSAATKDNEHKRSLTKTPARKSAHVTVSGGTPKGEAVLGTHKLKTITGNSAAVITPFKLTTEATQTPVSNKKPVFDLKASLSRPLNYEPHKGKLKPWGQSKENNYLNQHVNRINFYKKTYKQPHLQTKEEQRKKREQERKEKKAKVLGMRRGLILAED

[2] = compound: C=CC(=O)N1CCC[C@@H](n2nc(-c3ccc(Oc4ccccc4)cc3)c3c(N)ncnc32)C1 [ibrutinib]
Procedure, shortened: as §1

[3] = compound: CC(=O)c1cnc2ccc(-c3cc(Cl)c(O)c(Cl)c3)nc2c1N[C@H]1CC[C@H](CN(C)C)CC1
Procedure, shortened: as §1

[4] = compound: CC(C)(C)Cn1c(N)nc2ccc(-c3[nH]c(C(C)(C)C)nc3-c3ccc(F)cc3)nc21 [ralimetinib]
Procedure, shortened: as §1

[5] = compound: CC(C)(O)CC(=O)NCCn1ccc2ncnc(Nc3ccc(Oc4cccc(C(F)(F)F)c4)c(Cl)c3)c21
Procedure, shortened: as §1

[6] = compound: CC(C)C1=C2N=C(C=C(N2N=C1)NCC3=CC=CC=C3)NCCCCCCN
Procedure, shortened: as §1

[7] = compound: CC(C)C[C@@H](C=O)NC(=O)[C@H](CC(C)C)NC(=O)[C@H](CC(C)C)NC(=O)OCc1ccccc1
Procedure, shortened: as §1

[8] = compound: CC(C)N(C[C@H]1O[C@@H](n2cnc3c(N)ncnc32)[C@H](O)[C@@H]1O)[C@H]1C[C@@H](CCc2nc3cc(C(C)(C)C)ccc3[nH]2)C1 [pinometostat]
Procedure, shortened: as §1

[9] = compound: CC1=C(C(CC(=O)N1)C2=CC=C(C=C2)C(F)(F)F)C(=O)NC3=C(C=C4C(=C3)C=NN4)F
Procedure, shortened: as §1

[10] = compound: CC1=C(C2=C(C=C1)C(=O)C3=CC=CC=C3N2CCCN)C
Procedure, shortened: as §1

[11] = compound: CC1=C(C=C(C=C1)NC(=O)C2=CC(=CC=C2)C(C)(C)C#N)NC3=CC4=C(C=C3)N=CN(C4=O)C
Procedure, shortened: as §1

[12] = compound: CC1=C(C=C(C=C1)NC(=O)C2=CC(=CC=C2)N(C)C)NC(=O)C3=CC=C(C=C3)O
Procedure, shortened: as §1

[13] = compound: CC1=CC=C(C=C1)SC2=C3C=C(SC3=CN=C2)C(=O)N
Procedure, shortened: as §1

[14] = compound: CC1=NC(=CC=C1)C2=C(N=C(N2)C(C)(C)C)C3=CC4=NC=CN=C4C=C3
Procedure, shortened: as §1

[15] = compound: CCCCN(Cc1ccc(C(=O)NO)cc1)C(=O)Nc1ccccc1 [Nexturastat A]
Procedure, shortened: as §1

[16] = compound: CCCS(=O)(=O)Nc1ccc(F)c(C(=O)c2c[nH]c3ncc(-c4ccc(Cl)cc4)cc23)c1F [vemurafenib]
Procedure, shortened: as §1

[17] = compound: CCCS(=O)(=O)Nc1ccc(F)c(C(=O)c2c[nH]c3ncc(Cl)cc23)c1F
Procedure, shortened: as §1

[18] = compound: CCCc1cc(C)[nH]c(=O)c1CNC(=O)c1cc(-c2ccnc(N3CCN(C)CC3)c2)cc2c1cnn2C(C)C
Procedure, shortened: as §1

[19] = compound: CCN(CC)Cc1ccc2cc(COC(=O)Nc3ccc(C(=O)NO)cc3)ccc2c1 [givinostat]
Procedure, shortened: as §1

[20] = compound: CCN(CCCOc1ccc2c(Nc3cc(CC(=O)Nc4cccc(F)c4)[nH]n3)ncnc2c1)CCOP(=O)(O)O [barasertib]
Procedure, shortened: as §1

Measured: log2 fold change

NUDCD1 (UniProt Q96RS6)
inactive: [1] 0.017 | [2] -0.032 | [3] 0.004 | [4] -0.024 | [5] -0.031 | [6] -0.045 | [7] -0.055 | [8] 0.006 | [9] 0.004 | [10] -0.003 | [11] 0.003 | [12] -0.008 | [13] 0.012 | [14] 0.02 | [15] -0.024 | [16] 0.033 | [17] 0.035 | [18] -0.036 | [19] 0.028 | [20] 0.009

NUDT3 (UniProt O95989)
inactive: [1] 0.011 | [2] 0.007 | [3] -0.028 | [4] -0.075 | [5] 0.001 | [6] 0.012 | [7] -0.027 | [8] -0.052 | [9] 0.039 | [10] -0.017 | [11] 0.008 | [12] -0.034 | [13] -0.012 | [14] 0.02 | [15] -0.125 | [16] -0.012 | [17] -0.065 | [18] -0.044 | [19] -0.04 | [20] 0.019

ORC4 (UniProt O43929)
inactive: [1] -0.097 | [2] -0.072 | [3] -0.069 | [4] 0.013 | [5] -0.139 | [6] -0.201 | [7] 0.077 | [8] -0.011 | [9] -0.021 | [10] 0.072 | [11] 0.02 | [12] 0.004 | [13] 0.009 | [14] 0.04 | [15] -0.031 | [16] 0.087 | [17] 0.053 | [18] -0.06 | [19] 0.099 | [20] 0.054

NUP133 (UniProt Q8WUM0)
inactive: [1] -0.106 | [2] -0.048 | [3] -0.093 | [4] 0.114 | [5] 0.052 | [6] -0.037 | [7] 0.053 | [8] 0.094 | [9] -0.044 | [10] -0.016 | [11] 0.003 | [12] 0.087 | [13] 0.013 | [14] 0.06 | [15] 0.137 | [16] 0.014 | [17] 0.006 | [18] 0.091 | [19] 0.026 | [20] 0.09

NUCB2 (UniProt P80303)
inactive: [1] 0.028 | [2] -0.014 | [3] -0.004 | [4] -0.029 | [5] 0.034 | [6] 0.067 | [7] -0.004 | [8] -0.048 | [9] -0.023 | [10] -0.002 | [11] 0.021 | [12] 0.004 | [13] 0.012 | [14] -0.004 | [15] -0.058 | [16] -0.019 | [17] -0.038 | [18] -0.066 | [19] -0.025 | [20] -0.014

P2RX4 isoform 2 (UniProt Q99571)
inactive: [1] -0.055 | [2] 0.056 | [3] -0.02 | [4] -0.035 | [5] 0.022 | [6] 0.012 | [7] 0.111 | [8] -0.069 | [9] -0.141 | [10] -0.171 | [11] -0.095 | [12] -0.042 | [13] 0.038 | [14] 0.039 | [15] 0.009 | [16] -0.001 | [17] -0.224 | [18] -0.11 | [19] -0.003 | [20] 0.066

OCIAD1 (UniProt Q9NX40)
inactive: [1] 0.035 | [2] 0.023 | [3] 0.02 | [4] -0.001 | [5] 0.02 | [6] -0.037 | [7] 0.006 | [8] -0.098 | [9] -0.041 | [10] 0.004 | [11] -0.043 | [12] -0.005 | [13] 0.005 | [14] 0.045 | [15] -0.065 | [16] 0.019 | [17] 0.003 | [18] -0.023 | [19] 0 | [20] -0.035

P4HA1 (UniProt P13674)
inactive: [1] -0.052 | [2] -0.07 | [3] 0.017 | [4] 0.061 | [5] 0.043 | [6] -0.037 | [7] 0.031 | [8] 0.081 | [9] 0.022 | [10] 0.033 | [11] -0.002 | [12] -0.032 | [13] -0.053 | [14] -0.052 | [15] 0.076 | [16] -0.017 | [17] -0.06 | [18] 0.077 | [19] -0.013 | [20] -0.035

2 records picked at random from the list so far:
NUP133 (UniProt Q8WUM0)
inactive: [1] -0.106 | [2] -0.048 | [3] -0.093 | [4] 0.114 | [5] 0.052 | [6] -0.037 | [7] 0.053 | [8] 0.094 | [9] -0.044 | [10] -0.016 | [11] 0.003 | [12] 0.087 | [13] 0.013 | [14] 0.06 | [15] 0.137 | [16] 0.014 | [17] 0.006 | [18] 0.091 | [19] 0.026 | [20] 0.09

P4HA1 (UniProt P13674)
inactive: [1] -0.052 | [2] -0.07 | [3] 0.017 | [4] 0.061 | [5] 0.043 | [6] -0.037 | [7] 0.031 | [8] 0.081 | [9] 0.022 | [10] 0.033 | [11] -0.002 | [12] -0.032 | [13] -0.053 | [14] -0.052 | [15] 0.076 | [16] -0.017 | [17] -0.06 | [18] 0.077 | [19] -0.013 | [20] -0.035

Further results follow:

NUB1 (UniProt Q9Y5A7)
inactive: [1] -0.039 | [2] -0.012 | [3] -0.123 | [4] 0.042 | [5] -0.072 | [6] -0.28 | [7] 0.167 | [8] 0.192 | [9] -0.015 | [10] -0.169 | [11] 0 | [12] -0.035 | [13] 0.034 | [14] -0.057 | [15] 0.161 | [16] 0.029 | [17] 0.038 | [18] 0.041 | [19] 0.065 | [20] 0.039

OXNAD1 (UniProt Q96HP4)
inactive: [1] -0.009 | [2] 0.072 | [3] 0.022 | [4] -0.046 | [5] -0.005 | [6] 0.078 | [7] -0.03 | [8] 0.002 | [9] 0.002 | [10] 0.075 | [11] 0.011 | [12] 0.008 | [13] -0.024 | [14] 0.022 | [15] -0.065 | [16] 0.024 | [17] -0.029 | [18] -0.041 | [19] -0.001 | [20] 0.01

OPA3 (UniProt Q9H6K4)
inactive: [1] -0.014 | [2] -0.045 | [3] 0.022 | [4] -0.09 | [5] 0.017 | [6] -0.082 | [7] 0.089 | [8] 0.032 | [9] 0.164 | [10] -0.076 | [11] -0.06 | [12] 0.084 | [13] 0.088 | [14] 0.088 | [15] -0.074 | [16] -0.106 | [17] -0.062 | [18] 0.019 | [19] 0.093 | [20] -0.044

NSUN6 (UniProt Q8TEA1)
inactive: [1] 0.032 | [2] 0.046 | [3] -0.01 | [4] -0.027 | [5] -0.015 | [6] 0.023 | [7] -0.034 | [8] -0.014 | [9] -0.025 | [10] 0.023 | [11] -0.015 | [12] -0.015 | [13] -0.012 | [14] 0.004 | [15] -0.042 | [16] 0.009 | [17] 0.026 | [18] -0.018 | [19] -0.032 | [20] 0.022

NSMCE3 (UniProt Q96MG7)
inactive: [1] 0 | [2] 0 | [3] -0.068 | [4] -0.032 | [5] -0.009 | [6] 0.088 | [7] 0.007 | [8] -0.186 | [9] -0.02 | [10] -0.246 | [11] -0.007 | [12] -0.035 | [13] 0.019 | [14] 0.014 | [15] 0.005 | [16] -0.016 | [17] 0.027 | [18] -0.014 | [19] 0 | [20] 0.014

NUBP2 (UniProt Q9Y5Y2)
inactive: [1] 0.051 | [2] 0.037 | [3] -0.057 | [4] -0.001 | [5] -0.1 | [6] -0.043 | [7] -0.053 | [8] 0.003 | [9] 0.022 | [10] 0.027 | [11] -0.007 | [12] -0.012 | [13] 0.021 | [14] 0.027 | [15] 0.006 | [16] 0.007 | [17] 0.006 | [18] -0.013 | [19] -0.007 | [20] 0.038

NUSAP1 (UniProt Q9BXS6)
inactive: [1] -0.124 | [2] -0.017 | [3] 0.025 | [4] 0.193 | [5] 0.06 | [6] 0.035 | [7] 0.206 | [8] 0.223 | [9] -0.017 | [10] -0.118 | [11] 0.012 | [12] 0.015 | [13] -0.062 | [14] -0.113 | [15] 0.097 | [16] -0.031 | [17] -0.023 | [18] -0.273 | [19] 0.01 | [20] -0.044

NUBPL (UniProt Q8TB37)
inactive: [1] 0.064 | [2] 0.073 | [3] -0.018 | [4] -0.033 | [5] 0 | [6] -0.001 | [7] -0.134 | [8] -0.056 | [9] 0.073 | [10] 0.078 | [11] -0.037 | [12] -0.039 | [13] 0.004 | [14] 0.006 | [15] 0.035 | [16] -0.055 | [17] -0.031 | [18] -0.039 | [19] -0.008 | [20] 0.024
